Test results as given in the supplement of paper PMC12542422.
Structures can show the parent of a compound that is named as a salt. ± gives the standard deviation of the averaged measurements. The list shows a part of the results. These are raw signals, not scaled to a control.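 Ribosome-assembly readouts in HeLa cells were imaged via ENP1 staining, with or without export block, or inducible tagged ribosomal protein reporters. Machine learning classified per-cell signal location versus solvent (DMSO) controls. Hits surpassed the DMSO false-positive mean by five standard deviations and were visually confirmed; three biological replicates.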

The compounds below were run on HeLa K (ENP1 immunofluorescence, +LMB) (assay: fraction of cells with nucleolar or nucleolar/nucleoplasmic ENP1 signal (MainHitrate); higher = more cells with nucleolar/nuclear readout signal (for ENP1 -LMB: less RNAPI inhibition; for +LMB ENP1 and RP reporters: stronger nuclear/nucleolar retention, i.e. ribosome biogenesis defect)). Conditions: concentration: 1 µM; treatment time: 6 h; ENP1 +LMB; leptomycin B: 20 nM, last 1.5 h.
Compound `NCCc1ccc(O)c(O)c1` [Dopamine hydrochloride (Inotropin)] has a fraction of 0.15 ± 0.2.
`O=C1[C@@H]2[C@H]3CC[C@H](C3)[C@@H]2C(=O)N1C[C@@H]1CCCC[C@H]1CN1CCN(c2nsc3ccccc23)CC1` [Lurasidone HCl] gave a fraction of 0.103 ± 0.14.
For `Nc1nnc(-c2cccc(Cl)c2Cl)c(N)n1` [Lamotrigine], the fraction was 0.107 ± 0.15.
`CCOc1ccc2nc3cc(N)ccc3c(N)c2c1` [Ethacridine lactate monohydrate] showed a fraction of 0.0597 ± 0.08.
Compound `NC(=O)OCC(COC(N)=O)c1ccccc1` [Felbamate] has a fraction of 0.0433 ± 0.037.
With `CC#CCn1c(N2CCC[C@@H](N)C2)nc2c1c(=O)n(Cc1nc(C)c3ccccc3n1)c(=O)n2C` [Linagliptin (BI-1356)] the fraction was 0.103 ± 0.11.
For `CCOc1cc(CC(=O)N[C@@H](CC(C)C)c2ccccc2N2CCCCC2)ccc1C(=O)O` [Repaglinide], the fraction was 0.0765 ± 0.065.
`CC=CC1=C(C(=O)O)N2C(=O)[C@@H](NC(=O)[C@H](N)c3ccc(O)cc3)[C@H]2SC1` [Cefprozil hydrate (Cefzil)] gave a fraction of 0.145 ± 0.23.
For `Nc1ncnc2c1ncn2[C@@H]1O[C@H](COP(=O)(O)OP(=O)(O)OP(=O)(O)O)[C@@H](O)[C@H]1O` [ATP (Adenosine-Triphosphate)], the fraction was 0.0877 ± 0.13.
Work on `CCCCCCCCCCCCCCCC[N+](C)(C)CCN(Cc1ccc(OC)cc1)c1ncccn1` [Thonzonium Bromide] yielded a fraction of 0.138 ± 0.21.
Compound `Cc1onc(-c2ccccc2Cl)c1C(=O)N[C@@H]1C(=O)N2[C@@H]1SC(C)(C)[C@@H]2C(=O)O` [Cloxacillin sodium (Cloxacap)] has a fraction of 0.0902 ± 0.12.
